Measurements published in patent US12630498B2 (Genzyme Corporation, priority 2019, dated 2026).
Structures were worked out from names or drawings and are uncertain.

Protein sequences, listed by entry. Tags and fused reporters are not part of them. Chains listed by the source or under a name are the forms on record and can include a tag or linker.
UniProt P13569, with tags, fused parts or gaps DEL508-508: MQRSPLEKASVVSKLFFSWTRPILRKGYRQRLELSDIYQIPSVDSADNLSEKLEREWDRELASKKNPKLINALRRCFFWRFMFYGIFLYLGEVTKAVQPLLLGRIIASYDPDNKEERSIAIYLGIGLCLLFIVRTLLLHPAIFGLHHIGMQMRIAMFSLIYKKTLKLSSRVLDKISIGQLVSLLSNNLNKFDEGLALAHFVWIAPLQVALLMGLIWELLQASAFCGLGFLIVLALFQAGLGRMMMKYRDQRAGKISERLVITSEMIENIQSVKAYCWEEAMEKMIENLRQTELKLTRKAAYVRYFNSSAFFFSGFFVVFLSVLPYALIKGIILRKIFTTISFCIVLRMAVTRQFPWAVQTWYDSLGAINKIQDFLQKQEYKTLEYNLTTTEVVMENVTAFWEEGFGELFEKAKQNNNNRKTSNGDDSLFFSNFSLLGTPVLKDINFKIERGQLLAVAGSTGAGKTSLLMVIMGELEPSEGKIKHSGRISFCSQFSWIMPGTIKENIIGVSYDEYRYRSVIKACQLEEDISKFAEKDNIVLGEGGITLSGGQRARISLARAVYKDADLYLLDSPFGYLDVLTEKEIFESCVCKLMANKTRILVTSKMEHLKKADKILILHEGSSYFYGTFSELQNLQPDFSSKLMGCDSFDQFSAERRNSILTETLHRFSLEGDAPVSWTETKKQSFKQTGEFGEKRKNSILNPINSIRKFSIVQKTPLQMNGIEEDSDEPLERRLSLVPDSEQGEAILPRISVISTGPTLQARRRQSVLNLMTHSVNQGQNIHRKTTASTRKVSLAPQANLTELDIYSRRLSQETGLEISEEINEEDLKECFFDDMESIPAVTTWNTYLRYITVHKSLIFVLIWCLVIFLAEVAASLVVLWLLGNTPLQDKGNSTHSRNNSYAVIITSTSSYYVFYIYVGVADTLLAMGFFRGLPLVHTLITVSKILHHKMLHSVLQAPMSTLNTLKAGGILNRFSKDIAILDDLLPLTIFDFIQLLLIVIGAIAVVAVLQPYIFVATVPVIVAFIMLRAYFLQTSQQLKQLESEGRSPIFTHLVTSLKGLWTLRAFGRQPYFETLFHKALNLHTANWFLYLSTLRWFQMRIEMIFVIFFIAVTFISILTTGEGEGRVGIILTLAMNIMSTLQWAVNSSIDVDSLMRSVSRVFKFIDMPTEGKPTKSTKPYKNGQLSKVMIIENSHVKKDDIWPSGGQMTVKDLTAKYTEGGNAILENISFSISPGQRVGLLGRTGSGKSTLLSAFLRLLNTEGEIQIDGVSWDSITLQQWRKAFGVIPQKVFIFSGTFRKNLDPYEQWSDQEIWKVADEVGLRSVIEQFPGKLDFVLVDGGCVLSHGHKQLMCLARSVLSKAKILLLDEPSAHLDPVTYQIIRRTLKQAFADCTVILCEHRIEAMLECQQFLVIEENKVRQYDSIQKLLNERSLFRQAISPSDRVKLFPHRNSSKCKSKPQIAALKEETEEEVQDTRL

Key:
[1] = target: CFTR-mediated transepithelial chloride transport in primary human bronchial epithelial cells from a ΔF508 homozygous CF donor (Homo sapiens, UniProt P13569, DEL508-508); test: TECC24 recording of CFTR-mediated transepithelial chloride transport in CF-HBE cells (AUC fold over DMSO); details: test agent 10 μM, 48 hours incubation, AUC of forskolin-stimulated IEQ relative to DMSO
[2] = target: human Cystic Fibrosis Transmembrane Conductance Regulator (CFTR) harboring the ΔF508 mutation (Homo sapiens, UniProt P13569, DEL508-508); test: H441 cell ΔF508-CFTR-HRP cell surface assay (Emax and EC50); format: cell-based; details: for H441 cell Emax (%): NA = Not active; for EC50: read-out: H441 cell EC50

| TECC24 AUC fold over DMSO @10 μM [1] | H441 cell Emax (%) [2] [%] | EC50 [2] [µM] | Compound |
| --- | --- | --- | --- |
| C (“C” refers to AUC @10 uM <4) | 90.4 | 1.3 | CC1(C(NC(=O)c2ccc3ccccc3c2OCc2ccc(SC(F)(F)F)cc2)C(=O)O)CC1 (centres unmarked) |
|  | 60.6 | 8.5 | CC(C)(C)[C@H](NC(=O)c1ccc2ccccc2c1OCc1nc(C(F)(F)F)cs1)C(=O)O |
| C (“C” refers to AUC @10 uM <4) | 214.1 | 1.5 | C[C@H](OCc1ccccc1)[C@H](NC(=O)c1ccc2cc(F)ccc2c1OCc1ccc(C(F)(F)F)cc1)C(=O)O |
